PubChem BioAssay (Tox21)
Several values for one entry are separate records, joined by “and”; a condition that tells them apart may be missing. Identical values can stand only once. The shares of active, inactive and inconclusive entries below differ from those in the screen. For some assays here: Potencies of inconclusive entries are doubtful fits and often do not repeat. Activity calls are given as the source filed them. Unless noted, calls come from the whole dose curve.

Protein sequences, listed by entry. Tags and fused reporters are not part of them. Lines headed by an entry give the natural chain unless they say otherwise; changes in a name come on top.
UniProt P14416, whole entry, looked up: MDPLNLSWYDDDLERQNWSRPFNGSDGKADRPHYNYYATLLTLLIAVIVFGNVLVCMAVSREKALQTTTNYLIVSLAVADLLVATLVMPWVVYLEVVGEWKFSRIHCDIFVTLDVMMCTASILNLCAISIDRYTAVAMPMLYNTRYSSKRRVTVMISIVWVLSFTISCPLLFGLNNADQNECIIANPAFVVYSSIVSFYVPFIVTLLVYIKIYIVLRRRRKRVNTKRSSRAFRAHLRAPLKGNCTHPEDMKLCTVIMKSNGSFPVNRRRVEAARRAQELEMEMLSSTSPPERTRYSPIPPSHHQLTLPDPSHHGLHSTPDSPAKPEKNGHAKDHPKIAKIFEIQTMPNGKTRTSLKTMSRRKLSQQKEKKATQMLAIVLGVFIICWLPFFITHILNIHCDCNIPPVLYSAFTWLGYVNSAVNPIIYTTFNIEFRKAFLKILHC
UniProt P28223, whole entry, looked up: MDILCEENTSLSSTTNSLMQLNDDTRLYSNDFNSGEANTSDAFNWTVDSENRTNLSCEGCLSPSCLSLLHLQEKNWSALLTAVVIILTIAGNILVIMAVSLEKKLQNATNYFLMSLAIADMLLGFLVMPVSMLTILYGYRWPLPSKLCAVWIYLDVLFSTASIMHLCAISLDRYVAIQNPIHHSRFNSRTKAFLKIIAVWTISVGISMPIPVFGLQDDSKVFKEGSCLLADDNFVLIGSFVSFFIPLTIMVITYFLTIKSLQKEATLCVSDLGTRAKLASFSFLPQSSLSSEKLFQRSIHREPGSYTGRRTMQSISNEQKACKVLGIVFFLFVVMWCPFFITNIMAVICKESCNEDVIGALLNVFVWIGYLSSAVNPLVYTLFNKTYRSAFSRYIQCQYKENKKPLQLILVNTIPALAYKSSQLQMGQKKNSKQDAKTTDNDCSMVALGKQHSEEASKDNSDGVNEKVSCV
UniProt P11229: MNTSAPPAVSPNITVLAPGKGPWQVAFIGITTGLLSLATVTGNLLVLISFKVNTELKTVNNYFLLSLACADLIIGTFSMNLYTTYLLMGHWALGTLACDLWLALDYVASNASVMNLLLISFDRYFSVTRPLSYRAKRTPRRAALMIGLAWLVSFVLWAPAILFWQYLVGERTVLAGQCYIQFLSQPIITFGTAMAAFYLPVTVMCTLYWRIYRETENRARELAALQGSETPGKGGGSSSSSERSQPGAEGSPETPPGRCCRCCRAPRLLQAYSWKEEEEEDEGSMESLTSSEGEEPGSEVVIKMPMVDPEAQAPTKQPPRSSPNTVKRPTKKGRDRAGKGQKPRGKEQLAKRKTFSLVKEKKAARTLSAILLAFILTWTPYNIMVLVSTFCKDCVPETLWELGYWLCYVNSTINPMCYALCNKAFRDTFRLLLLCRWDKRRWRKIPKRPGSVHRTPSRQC

Experiments:
[1] = p53 small molecule agonists, cell-based qHTS assay with rat liver microsomes: qHTS cell viability counter screen (AID 1963580); conditions: p53RE-bla HCT-116 + rat microsomes, ATP viability, 16 h; series mostly up to 66 µM; note: nearly all actives have a fitted effect of over 45% in size; note: potency is the fitted concentration of half-maximal effect
Summary of the method: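 Intracellular ATP, by CellTiter-Glo luminescence, defines viability. HCT-116 p53RE-bla cells, 4,000 per well, were compound-treated in the presence of rat liver microsomes and NADPH for 16 h at 37 C.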

[2] = cAMP Responsive Elements (CRE) small molecule antagonists, cell-based qHTS assay (AID 1963591; active = well fitted inhibition curve with a large enough effect in the signal ratio in the repeat runs, not every such curve was filed as active; inconclusive = weak or mixed curves, or effect the other way; the % refers to the signal ratio; note: potency is the fitted concentration of half-maximal effect; for activity change, negative = inhibition: % is set by controls: 0 for no effect and ±100 for the full control effect); conditions: CRE-bla HEK293T, beta-lactamase FRET ratio; activity change, negative = inhibition: at 92.4 µM (top of the series) unless noted
Summary of the method: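 Beta-lactamase reporter read by FRET substrate (LiveBLAzer B/G) after 2 h at room temperature. CRE-bla HEK293T cells had received compound plus 0.25 uM (final) NKH477 for 3 h at 37 °C.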

[3] = target: Beta-2 adrenergic receptor (Homo sapiens) (UniProt P07550); assay: Adrenergic beta2 receptor (ADRB2) small molecule agonists, cell-based qHTS assay (AID 1963593); conditions: CHO-ADRB2 cells, cAMP HTRF, 30 min; note: potency is the fitted concentration of half-maximal effect;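 for activation: CHO cells stably overexpressing human ADRB2; % is set by controls: 0 for no effect and ±100 for the full control effect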
Summary of the method: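 CHO cells stably over-expressing ADRB2 were plated overnight at 37C, then dosed with compounds plus a stimulation mix containing 100uM IBMX and 25uM Ro-20-1724 for 0.5hr at room temperature. cAMP was measured by HTRF competition, 1hr.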

[4] = target: Beta-2 adrenergic receptor (Homo sapiens) (UniProt P07550); assay: Adrenergic beta2 receptor (ADRB2) small molecule antagonists, cell-based qHTS assay (AID 1963592); conditions: CHO-ADRB2 cells, isoproterenol-stimulated cAMP HTRF ratio, 0.5 h; activity change, negative = inhibition: at 92.4 µM (top of the series) unless noted; note: nearly all actives have a fitted effect of over 50% in size; note: potency is the fitted concentration of half-maximal effect; for activity change, negative = inhibition: % is set by controls: 0 for no effect and ±100 for the full control effect
Summary of the method: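 Cells (CHO, stable ADRB2 overexpression) incubated 18-20hr at 37C; compounds added from DMSO; agonist mix (1nM isoproterenol, 100uM IBMX, 25uM Ro-20-1724) added; 0.5hr RT; d2-cAMP and anti-cAMP-cryptate added; 1hr RT; 665/615 nm read.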

[5] = cAMP Responsive Elements (CRE) small molecule agonists, cell-based qHTS assay (AID 1963590); conditions: CRE-bla HEK293T, beta-lactamase FRET ratio, 3 h; activation: at 92.4 µM (top of the series) unless noted; note: potency is the fitted concentration of half-maximal effect; for activation: % is set by controls: 0 for no effect and ±100 for the full control effect
Summary of the method: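 HEK 293T CRE-bla, 2,000 cells/well, 18 h preincubation 37 C/5% CO2; cpds (DMSO) pinned, 3 h; LiveBLAzer B/G FRET substrate, 2 h RT.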

[6] = target: D(2) dopamine receptor (Homo sapiens) (UniProt P14416); assay: Dopamine D2 receptor (DRD2) small molecule antagonists, cell-based qHTS assay (AID 1963595; active = well fitted inhibition curve with a large enough effect in the signal ratio in the repeat runs, with a control signal flat; inconclusive = weak or mixed curves, or effect the other way; the % refers to the signal ratio; note: potency is the fitted concentration of half-maximal effect); conditions: HEK293-DRD2 cAMP HTRF antagonist mode; activity change, negative = inhibition: at 92.4 µM (top of the series) unless noted
Summary of the method: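 Human DRD2 antagonist qHTS measuring cAMP by HTRF. The cells are exposed to compound for 10 min, then to NKH477 (200 nM) and quinpirole (12 nM) for 30 min at RT, with Ro20-1724 (0.1 mM) present throughout.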

[7] = p53 small molecule agonists, cell-based qHTS assay: qHTS cell viability counter screen (AID 1963581); conditions: p53RE-bla HCT-116 viability, ATP luminescence, 16 h; series mostly up to 66 µM; note: nearly all actives have a fitted effect of over 45% in size; note: potency is the fitted concentration of half-maximal effect
Summary of the method: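 HCT-116 p53RE-bla cells, 4,000/well, plated 5 h before compound pin transfer; 16 h at 37 C; bla substrate 2 h RT; then CellTiter-Glo, 30 min RT, luminescence.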

[8] = p53 small molecule agonists, cell-based qHTS assay (AID 1963582; active = well fitted activation curve with a large enough effect in the signal ratio in the repeat runs, not every such curve was filed as active; inconclusive = weak or mixed curves; the % refers to the signal ratio; note: potency is the fitted concentration of half-maximal effect); conditions: HCT-116 p53RE-bla reporter, beta-lactamase FRET ratio, 16 h; activation: at 66 µM (top of the series) unless noted
Summary of the method: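 Reporter line: p53RE-bla. Pre-incubation 5 h, 37 C, 5% CO2; compound (DMSO, pin tool) 16 h, 37 C; B/G FRET substrate 2 h RT; fluorescence intensity read.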

[9] = target: 5-hydroxytryptamine receptor 2A (Homo sapiens) (UniProt P28223); assay: 5-hydroxytryptamine receptor 2A (HTR2A) small molecule antagonists, cell-based qHTS assay (AID 1963586); conditions: HTR2A-CHO cells, DOI-induced calcium flux, fluorescence; series mostly up to 61.5 µM; note: potency is the fitted concentration of half-maximal effect; nearly all actives have a fitted effect of over 45% in size
Summary of the method: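 Antagonist-mode intracellular calcium assay: DOI (4 nM) added after 5 min compound pre-incubation at room temperature to dye-loaded HTR2A-CHO cells. Fluorescence followed for 3 min, sampled every second.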

[10] = target: Muscarinic acetylcholine receptor M1 (Homo sapiens) (UniProt P11229); assay: Cholinergic receptor muscarinic 1 (CHRM1) small molecule antagonists, cell-based qHTS assay (AID 1963588); conditions: CHRM1-CHO antagonist mode, calcium flux fluorescence; series mostly up to 61.5 µM; note: potency is the fitted concentration of half-maximal effect; nearly all actives have a fitted effect of over 40% in size
Summary of the method: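 CHRM1-CHO calcium-flux assay, antagonist mode. Cells were seeded 18 h, dye-loaded 1 h at 37 C and given compound for 5 min at RT, then acetylcholine was added at 50nM. FDSS fluorescence was read 3 min; 15 concentrations, three runs.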

[11] = target: D(2) dopamine receptor (Homo sapiens) (UniProt P14416); assay: Dopamine D2 receptor (DRD2) small molecule agonists, cell-based qHTS assay (AID 1963594); conditions: HEK293-DRD2 cAMP HTRF, agonist mode, 30 min; activation: at 92.4 µM (top of the series) unless noted; note: % is set by controls: 0 for no effect and ±100 for the full control effect; nearly all actives have a fitted effect of over 35% in size
Summary of the method: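 cAMP accumulation in DRD2-HEK293 cells measured by HTRF after 1 h detection; compounds added 10 min before NKH477 (200nM […]) forskolin-analogue stimulation, 30 min at room temperature, with Ro20-1724 present at 0.1 mM final.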

[12] = activation: at 92.4 µM (top of the series) unless noted

CC1CCN(CCCC(=O)c2ccc(F)cc2)CC1
Potency [1]: inactive
Potency [2]: inactive
Potency [3, 12]: inactive

CC(C)CCCC(C)(C)O
Potency [1]: inconclusive: 36.3 µM [rising, partial curve, poor fit]
activation [3, 12]: inconclusive: 26.1%

Cc1c(O)cccc1O
Potency [1]: inconclusive: 46.9 µM [rising, single point]
Potency [3, 12]: inactive

CC/C=C\CCOC(=O)CCCCC
Potency [1]: inactive
Potency [2]: inactive
activation [3, 12]: inconclusive: 1.36%

CCN(CC)CCNC(=O)c1ccc(N)cc1
Potency [1]: inconclusive: 0.46 µM [cytotoxic, full curve, poor fit]
Potency [3, 12]: inactive

Nc1cc([N+](=O)[O-])cc(Cl)c1O
Potency [1]: inconclusive: 1.62 µM [cytotoxic, partial curve, poor fit]
activation [3, 12]: inconclusive: -50.7%

COC(=O)c1ccccc1OC
Potency [1]: inactive
Potency [2]: inactive

CC(=O)OCC[N+](C)(C)C
Potency [1]: inactive
activity change, negative = inhibition [4]: inconclusive: 1.14% [at 42.5 µM]
activation [3, 12]: inconclusive: 0.394% [at 42.5 µM]

Cc1oc(C)c(C(=O)Nc2ccccc2)c1C
Potency [1]: inactive
Potency [3, 12]: inactive

CC(=O)CC(c1ccccc1)c1c(O)c2ccccc2oc1=O (stereo unspecified)
Potency [1]: inconclusive: 51.5 µM [cytotoxic, single point]
Potency [5]: inactive
Potency [3, 12]: inconclusive: 27.4 µM [inhibitor, single point] and inconclusive: 77 µM [inhibitor, single point]
activation [3, 12]: inconclusive: -36.8% [at 42.5 µM]
activation ([3]; at 92.4 µM (top of the series)): inactive: 10.3%
activity change, negative = inhibition [6]: inconclusive: -4.2%

CCN(CC)CCNC(=O)c1c(C)[nH]c(/C=C2\C(=O)Nc3ccc(F)cc32)c1C
Potency [1]: inconclusive: 17.8 µM [cytotoxic, partial curve, poor fit]
Potency [4]: inconclusive: 13.3 µM
Potency [3, 12]: inconclusive: 26.6 µM
Potency [6]: inconclusive: 26.6 µM [falling, partial curve]

CCCOC(OCCC)OCCC
Potency [1]: inactive
Potency [3, 12]: inactive

N[C@@H]1CONC1=O
Potency [1]: inconclusive: 0.446 µM [cytotoxic, single point]
Potency [2]: inactive
Potency [6]: inactive

C=C(C)CCCC
Potency [1]: inconclusive: 1.82 µM [cytotoxic, single point]
Potency [2]: inactive

CC(C)CCCCOC(=O)c1ccccc1C(=O)OCCCCC(C)C
Potency [1]: inactive
Potency [3, 12]: inactive

O=C1c2ccccc2C(=O)C1c1ccc2ccccc2n1
Potency [1]: inconclusive: 0.904 µM [cytotoxic, single point]
activation [3, 12]: inconclusive: 4.27% [at 42.5 µM]

[Ca+2]
Potency [1]: inactive
Potency [3, 12]: inactive

CC(=O)O[C@@H]1CC2CCC1(C)C2(C)C (stereo partly specified)
Potency [7]: inconclusive: 4.08 µM [rising, partial curve]
Potency [8]: inconclusive: 51.3 µM [falling, single point]

NS(=O)(=O)c1cc(-c2nn[nH]n2)c(NCc2cccs2)cc1Cl
Potency [7]: inconclusive: 8.9 µM [rising, single point]

O=C1CCCCCCCCCCCCCC1
Potency [7]: inconclusive: 0.257 µM [rising, partial curve, poor fit]

CN1CCCC(CC2c3ccccc3Sc3ccccc32)C1 (stereo unspecified)
Potency [7]: inconclusive: 4.46 µM [rising, full curve]
Potency [8]: inconclusive: 17.8 µM [rising, single point]
Potency [9]: inconclusive: 25.9 µM [inhibitor, partial curve, poor fit]
Potency [10]: active: 0.0015 µM
Potency [5]: inconclusive: 33.5 µM [rising, single point]
Potency [2]: inconclusive: 33.5 µM [single point]
Potency [4]: inconclusive: 33.5 µM [inhibitor, single point]
Potency [3, 12]: inconclusive: 37.6 µM [inhibitor, single point]
activation [11]: inconclusive: -21.9% [at 42.5 µM]

O=[Si]=O
Potency [7]: inactive

CC(CCc1ccccc1)NCC(O)c1ccc(O)c(C(N)=O)c1 (stereo unspecified)
Potency [7]: inconclusive: 20.4 µM [rising, partial curve]
Potency [8]: inconclusive: 12.9 µM [rising, full curve]

Nc1ccc2cc(S(=O)(=O)O)cc(O)c2c1N=Nc1ccccc1C(F)(F)F
Potency [7]: inactive

CCCC(O)C(O)CO (stereo unspecified)
Potency [7]: inactive

OC1(c2ccc(Cl)c(C(F)(F)F)c2)CCN(CCCC(c2ccc(F)cc2)c2ccc(F)cc2)CC1
Potency [7]: active: 11.2 µM
Potency [8]: inconclusive: 12.6 µM [falling, full curve]
Potency [9]: inconclusive: 0.365 µM [inhibitor, full curve]
Potency [10]: inconclusive: 16.3 µM [inhibitor, single point]
Potency [5]: inconclusive: 11.9 µM
Potency [2]: inconclusive: 26.6 µM [rising, partial curve]
Potency [4]: active: 26.6 µM
Potency [3, 12]: inconclusive: 10.6 µM [inhibitor, partial curve]
Potency [6]: active: 0.119 µM
